## Cleaved PARP in drug-treated melanoma cells

Values as published with doi:10.1371/journal.pone.0140310, rounded.

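The test systems are human melanoma cell lines, treated with a pair of drugs for 72 h and then stained and imaged. Values are the share of nuclei positive for cleaved PARP as a percentage of the same share in the DMSO control: 100 is the control level, higher means more apoptosis. Every drug was used at one fixed concentration, the higher of two screened. The file gives one value for each pair and line, without errors, so small differences may be noise. The marker varies much from line to line, for technical or biological reasons.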
An unselected part of the screen is shown.
A dash means that no value is listed here.

Drugs:
erlotinib (4 µM): C#Cc1cccc(Nc2ncnc3cc(OCCOC)c(OCCOC)cc23)c1
pioglitazone (10 µM): CCc1ccc(CCOc2ccc(CC3SC(=O)NC3=O)cc2)nc1 (centres unmarked)
lenalidomide (5 µM): Nc1cccc2c1CN(C1CCC(=O)NC1=O)C2=O (centres unmarked)
OSI-906 (2 µM): C[C@]1(O)C[C@@H](c2nc(-c3ccc4ccc(-c5ccccc5)nc4c3)c3c(N)nccn32)C1
ENMD-2076 (0.2 µM): Cc1cc(Nc2cc(N3CCN(C)CC3)nc(/C=C/c3ccccc3)n2)n[nH]1
SNS-314 (0.004 µM): O=C(Nc1cccc(Cl)c1)Nc1ncc(CCNc2ncnc3ccsc23)s1
LFM-A13 (10 µM): C/C(O)=C(\C#N)C(=O)Nc1cc(Br)ccc1Br
crizotinib (1 µM): C[C@@H](Oc1cc(-c2cnn(C3CCNCC3)c2)cnc1N)c1c(Cl)ccc(F)c1Cl
AS-252424 (5 µM): O=C1NC(=O)/C(=C/c2ccc(-c3ccc(F)cc3O)o2)S1
tozasertib (0.03 µM): Cc1cc(Nc2cc(N3CCN(C)CC3)nc(Sc3ccc(NC(=O)C4CC4)cc3)n2)n[nH]1
sorafenib (2 µM): CNC(=O)c1cc(Oc2ccc(NC(=O)Nc3ccc(Cl)c(C(F)(F)F)c3)cc2)ccn1
T0901317 (7 µM): O=S(=O)(c1ccccc1)N(CC(F)(F)F)c1ccc(C(O)(C(F)(F)F)C(F)(F)F)cc1

| Pair | COLO 829 | SK-MEL-28 | A2058 | WM3619 | IPC-298 | IST-MEL1 | LB2518-MEL | MZ2-MEL | UACC-257 | RVH-421 | LOX IMVI | COLO 792 |
|---|---|---|---|---|---|---|---|---|---|---|---|---|
| ENMD-2076 + OSI-906 | 241 | 44.5 | 106 | 90.7 | 257 | 180 | 190 | 79.2 | 47.1 | 101 | 97.6 | 120 |
| crizotinib + SNS-314 | 193 | 177 | 276 | 109 | 158 | 206 | - | - | 158 | 428 | 113 | 184 |
| SNS-314 + OSI-906 | 354 | 147 | 180 | 129 | 133 | 113 | 126 | 227 | 115 | 59.6 | 135 | 140 |
| erlotinib + LFM-A13 | 177 | 159 | 279 | 126 | 131 | 59.7 | 216 | 40.0 | 36.4 | 138 | 187 | 224 |
| T0901317 + SNS-314 | 154 | 785 | 193 | 161 | 50.9 | 455 | 177 | 201 | 23.8 | 154 | 47.9 | 127 |
| tozasertib + T0901317 | 173 | 60.8 | 124 | 158 | 54.7 | 46.5 | 78.0 | 288 | 41.0 | 157 | 103 | 83.7 |
| sorafenib + T0901317 | 183 | 41.2 | 66.2 | 75.5 | 80.1 | 83.4 | 65.3 | 56.4 | 29.4 | 114 | 77.3 | 23.2 |
| crizotinib + erlotinib | 146 | 284 | 159 | 138 | 94.6 | 110 | 46.9 | 109 | 78.4 | 666 | 116 | 152 |
| SNS-314 + lenalidomide | 199 | 83.1 | 233 | 101 | 91.2 | 169 | 263 | 98.7 | 66.1 | 194 | 183 | 93.0 |
| ENMD-2076 + sorafenib | 177 | 62.2 | 143 | 110 | 41.2 | 100 | 194 | 127 | 76.1 | 108 | 163 | 134 |
| pioglitazone + OSI-906 | 50.4 | 45.9 | 43.8 | 113 | 173 | 104 | 59.1 | 101 | 33.3 | 40.1 | 39.2 | 98.3 |
| AS-252424 + erlotinib | 89.9 | 51.8 | 297 | 123 | 39.1 | 358 | 179 | 116 | 15.4 | 79.7 | 102 | 218 |
| LFM-A13 + SNS-314 | 129 | 263 | 277 | 130 | 60.0 | 106 | 81.0 | 265 | 49.6 | 262 | 152 | 148 |
| erlotinib + SNS-314 | 52.0 | 220 | 330 | 119 | 173 | 186 | 169 | 267 | 116 | 196 | 181 | 478 |
| AS-252424 + lenalidomide | 98.2 | 49.9 | 130 | 97.3 | 69.0 | 166 | 123 | 67.6 | 41.2 | 68.9 | 122 | 56.4 |
| sorafenib + tozasertib | 102 | 38.7 | 107 | 167 | 172 | 95.8 | 212 | 264 | 23.5 | 114 | 126 | 62.5 |
| sorafenib + lenalidomide | 78.7 | 76.7 | 66.3 | 64.8 | 264 | 110 | 142 | 119 | 33.8 | 102 | 80.5 | 114 |
| AS-252424 + LFM-A13 | 42.8 | 102 | 68.6 | 75.2 | 81.9 | 57.2 | 77.2 | 41.0 | 16.9 | 66.8 | 90.2 | 81.4 |
| sorafenib + AS-252424 | 111 | 208 | 66.2 | 105 | 42.0 | 115 | 57.7 | 169 | 24.9 | 68.8 | 125 | 65.6 |
| LFM-A13 + lenalidomide | 124 | 128 | 65.9 | 104 | 50.7 | 57.0 | 133 | 109 | 48.5 | 95.1 | 74.6 | 99.6 |
| T0901317 + pioglitazone | 19.9 | 221 | 157 | 144 | 101 | 61.2 | 37.3 | 67.5 | 46.8 | 85.1 | 91.3 | 78.5 |
| ENMD-2076 + SNS-314 | 52.1 | 440 | 232 | 131 | 61.7 | 82.1 | 137 | 239 | 101 | 114 | 724 | 159 |
| LFM-A13 + OSI-906 | 116 | 252 | 82.5 | 253 | 179 | 99.2 | 211 | 83.6 | 31.2 | 33.8 | 54.8 | 109 |
| sorafenib + OSI-906 | 152 | 140 | 66.0 | 85.4 | 107 | 94.8 | 251 | 137 | 110 | 112 | 65.3 | 65.3 |
| lenalidomide + T0901317 | 150 | 66.9 | 103 | 299 | 76.6 | 135 | 34.9 | 30.5 | 189 | 126 | 48.2 | 61.0 |
| tozasertib + pioglitazone | 58.3 | 220 | 139 | 121 | 61.0 | 64.2 | 467 | 321 | 82.6 | 34.0 | 78.5 | 86.3 |
| crizotinib + sorafenib | 129 | 199 | 139 | 188 | 83.4 | 223 | 115 | 122 | 96.6 | 141 | 82.6 | 50.7 |
| SNS-314 + sorafenib | 56.9 | 126 | 357 | 126 | 64.9 | 236 | 130 | 165 | 60.7 | 126 | 586 | 81.6 |
| AS-252424 + crizotinib | 210 | 55.9 | 141 | 128 | 104 | 131 | 129 | 132 | 63.5 | 31.2 | 143 | 53.1 |
| AS-252424 + tozasertib | 180 | 130 | 168 | 157 | 45.6 | 33.0 | 281 | 249 | 63.9 | 154 | 30.7 | 123 |
| pioglitazone + lenalidomide | 123 | 133 | 74.8 | 144 | 59.6 | 33.9 | 35.7 | 99.7 | 37.1 | 87.4 | 98.0 | 227 |
| ENMD-2076 + T0901317 | 76.3 | 168 | 81.6 | 114 | 66.4 | 157 | 149 | 88.0 | 71.8 | 76.6 | 206 | 194 |
| pioglitazone + ENMD-2076 | 75.3 | 176 | 158 | 127 | 91.8 | 60.2 | 376 | 224 | 122 | 212 | 98.5 | 46.7 |
| lenalidomide + crizotinib | 198 | 175 | 98.8 | 128 | 58.7 | 81.6 | 64.2 | 57.8 | 80.1 | 206 | 76.5 | 88.2 |
| ENMD-2076 + LFM-A13 | 75.6 | 141 | 72.1 | 98.7 | 86.7 | 96.0 | 83.5 | 29.3 | 120 | 110 | 216 | 62.2 |

Some entries from above, unchanged:

Pair,COLO 829,SK-MEL-28,A2058,WM3619,IPC-298,IST-MEL1,LB2518-MEL,MZ2-MEL,UACC-257,RVH-421,LOX IMVI,COLO 792
sorafenib + T0901317,183,41.2,66.2,75.5,80.1,83.4,65.3,56.4,29.4,114,77.3,23.2
AS-252424 + lenalidomide,98.2,49.9,130,97.3,69.0,166,123,67.6,41.2,68.9,122,56.4